Values of other authors in article PMC5700124 (Scientific Reports, 2017).

Legend:
α2 adrenoceptor [1] = details: cited from earlier work
α2 adrenoceptor [2] = test system: α2 adrenoceptor; parameters: method as in Rout et al.[32]; details: cortex, pH 7.0, 25.0 °C, blocking of NS noradrenaline 100 μM, ref Rout et al.[32], cited from earlier work

For `COC(=O)[C@H]1[C@H]2C[C@H]3c4[nH]c5ccccc5c4CCN3C[C@H]2CC[C@@H]1O` [[^3H] -rauwolscine, [^3H]rauwolscine], the Bmax (α2 adrenoceptor [1]; anterior forebrain, autoradiography, pH 7.7, 22 °C, mg^2+ 0, blocking of NS phentolamine 10 μM, ref Boyajian et al.[41]) is listed as 109 fmol/mg protein and the receptor density (α2 adrenoceptor [1]; in vitro receptor binding, rat caudate-putamen) is listed as 197 fmol/mg protein.
For `COC(=O)[C@@H]1[C@H]2C[C@H]3c4[nH]c5ccccc5c4CCN3C[C@@H]2CC[C@@H]1O` [[^3H]yohimbine], the Bmax (α2 adrenoceptor [2]; mg^2+ 0 mM) is listed as 260 fmol/mg protein and the Bmax (α2 adrenoceptor [2]; mg^2+ 10 mM) is listed as 157 fmol/mg protein.

Read-outs that look alike come from different tables or passages of the source.
